## Library screening results

Data taken from ChEMBL document CHEMBL3988442, “University of Dundee, Small-Polar-MMV Screening Library” (2021).

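Viability assay of Plasmodium falciparum sporozoites; the read-out is not stated. The concentration is filed as 10 mM, unlikely as a test dose, so the dose is not known. Higher reads as lower viability (inferred: compounds with an IC50 in retests scored well above the rest). Strong results were mostly tested again. About 34,000 compounds were tested under these conditions; 0.84% (about 280) showed 50% or more at least once.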

Results are given as percent effect. The record does not define 0% and 100%; most values in the screen are far below 50% and negative numbers occur (in some assays of this library far below -100). The compounds are a random part of those screened. Two or more numbers in one place are separate tests of the same structure; such repeats can differ widely.

| compound | percent effect |
|---|---|
| `[H][C@@]12COC[C@]1(COc1cccnc1)CN(C(=O)Cc1cccs1)C2` | 3.608% |
| `CC(NC(=O)CN(C)S(C)(=O)=O)c1nnc2n1CCCCC2` (stereo not given) | 3.2% |
| `CCS(=O)(=O)N1CC(=O)N(CCCc2ccccc2)CC(O)C1` (stereo not given) | 1.435% |
| `O=C(Cc1ccc2c(c1)CCC2)NCCNc1ncccn1` | 8.394% |
| `NS(=O)(=O)CCNC(=O)c1cc2cccc(F)c2o1` | -3.403% |
| `Cn1cccc1C(=O)N1CCc2onc(Cn3cccn3)c2C1` | -6.569% |
| `CN(C)C(=O)C1CN(Cc2ccccn2)CCN(S(C)(=O)=O)C1` (stereo not given) | 20.54% |
| `CCN1CCCCC1C(=O)N1CCC(OCCOC)CC1` (stereo not given) | -6.502% |
| `CCC(NC(=O)COC)c1ccccc1OCC(=O)N1CCCC1` (stereo not given) | 4.982% & -7.165% & -9.256% |
| `Cc1ccc(CN(CCCN(C)C)Cc2cnc(N(C)C)nc2)o1.O=C(O)CC(O)(CC(=O)O)C(=O)O` | 6.333% |
| `CCOc1ncnc2c1CCN(Cc1csc(C)n1)CC2.O=C(O)C(F)(F)F` | 1.01% |
| `[H][C@]12CCN(Cc3cccc(C)n3)[C@@]1([H])C[C@H](C(=O)N1CCN(C)CC1)O2` | 8.134% |
| `CC(C)c1nc2c(n1C)CCN(CC(=O)Nc1ccc(Cl)cn1)C2` | 26.82% |
| `Cc1ccc(C(=O)N2CCCN(Cc3cscn3)CC2)o1` | 11.39% |
| `CC(C)(C)C(O)CN1CCN(CC(=O)NC2CCOCC2)CC1` (stereo not given) | -8.788% |
| `CN(Cc1ccccn1)C(=O)CNC(=O)N1CCc2ccccc2C1` | 1.374% |
| `CCOc1ccc(Cl)c(C(=O)NCCS(N)(=O)=O)n1` | 6.415% |
| `N#Cc1ccccc1N1CCCN(C(=O)NCc2cc[nH]n2)CC1` | 4.247% |
| `Cc1cc(N2CCN(C(=O)c3cnn(C(C)C)c3)CC2)nc(N)n1` | -18.31% |
| `Cc1nc(C2CCCN2C(=O)CCOCc2ccccc2)no1` (stereo not given) | 12.22% |
| `COCC1COCCC12CCN(CCc1ccccc1)CC2.O=C(O)C(F)(F)F` (stereo not given) | -0.6764% |
| `Cn1c(NCC(O)c2ccccc2F)c(C#N)c(=O)n(C)c1=O` (stereo not given) | 6.408% |
| `Cl.O=c1c2sccc2nc2n1CCN(Cc1ccccc1C(F)(F)F)CC2` | 12.76% |
| `Cc1ccc(NC2CCN(C(=O)c3c(C)oc(C)c3C)CC2)nn1` | 1.894% |
| `CSCC[C@H](N)C(=O)NCc1cc2n(n1)CCCN(C(=O)C1CCC1)C2` | -4.927% |
| `O=C(O)C(F)(F)F.[H][C@]12C[C@@H](CN(C)C)N(C(C)=O)[C@@]1([H])CCN(C(=O)c1ccno1)C2` | 3.765% |
| `COc1ccc(C(=O)N2CCOCC2c2[nH]ncc2C)cc1F` (stereo not given) | 9.674% |
| `Cc1ccc2c(c1)C(=O)NCC1(CCN(C(=O)c3sccc3C)CC1)O2` | -4.469% |
| `O=C(O)C(F)(F)F.[H][C@@]12CN(Cc3nccs3)C[C@]1([H])CN(C(N)=O)C2` | 9.371% |
| `CC(C)c1nccn1CCCNC(=O)c1ccc(-c2cn[nH]c2)nc1` | 4.615% |
| `CCOc1cccc(CNC(=O)N2CCC(Cc3cnn(C)c3)C2)c1` (stereo not given) | 5.615% |
| `CN(C)CC(=O)N1Cc2nnn(C)c2C(COCC2CC2)C1` (stereo not given) | 3.322% |
| `CC(NC(=O)NCCCN(C)C)c1ccc2c(c1)CCC(=O)N2` (stereo not given) | 7.359% |
| `O=C(Cc1ccc2c(c1)CCO2)N1CCN(c2ccccn2)CC1` | 5.986% |
| `Cc1cnc2c(S(=O)(=O)NCC3CCN(C4CC4)C3)cccc2c1` (stereo not given) | -6.601% |
| `CC(C)N1CCC(c2n[nH]cc2-c2ccnc(N)c2)C1` (stereo not given) | -11.55% |
| `O=C(O)C(F)(F)F.O=C(O)C(F)(F)F.[H][C@@]12CCCO[C@]1([H])[C@H](NC(=O)CC1CC1)CN(Cc1ccncc1)C2` | -8.983% |
| `COCCN1CC2(CCOCC2)c2cc(NC(=O)C3CC=CC3)ccc21.O=C(O)C(F)(F)F` | 19.61% |
| `CCOCC1CN(S(C)(=O)=O)Cc2ncn(CC3CC3)c21` (stereo not given) | 1.845% |
| `Cc1csc(C2CCCCN2C(=O)c2cc(C3CC3)[nH]n2)n1` (stereo not given) | -3.853% |
| `CCOC(=O)N1CC(=O)N(CCc2ccccc2)CC(O)C1` (stereo not given) | -23.71% |
| `COCCC(=O)N1CCC2(CN(Cc3cccc(Cl)c3)C2)C1` | 8.073% |
| `CCS(=O)(=O)N1Cc2cncn2CC(C(=O)NCC2CC2)C1` (stereo not given) | 1.857% |
| `CN(C)Cc1ccnc(C2CN(CCc3ccccc3)CCO2)n1` (stereo not given) | 20.19% |
| `O=C(CCc1cccc(F)c1F)N1CCCC(n2cncn2)C1` (stereo not given) | -1.296% |
| `COCCN(C)C(C)c1cccc(S(N)(=O)=O)c1` (stereo not given) | 5.537% |
| `Cl.c1cc(CC2CCCNC2)nc(NCCc2cnccn2)c1` (stereo not given) | -1.485% |
| `CCC(C)N(Cc1cccnc1)Cc1cc2c(cc1OC)OCO2` (stereo not given) | -15.66% |
| `Cc1cccc2c(=O)c(C(=O)N3CCCC4(CN(C)C(=O)O4)C3)c[nH]c12` (stereo not given) | -11.48% |
| `CCc1noc(C(C)N2CCN(Cc3noc(C)n3)CC2)n1` (stereo not given) | 18.8% |
| `CCNC(=O)c1cn2cc(-c3ccccc3Cl)n(CC3CC3)c(=O)c2n1` | 3.538% |
| `COc1ccc(-c2nnc(CNCCn3cccn3)o2)cc1` | 3.188% |
| `Cc1noc(C2CCCCN2C(=O)NC2CCCC2)n1` (stereo not given) | -0.1127% |
| `COc1ccc(NC(=O)CNc2cccc3c2CCCC3)c(OC)c1` | -4.844% |
| `Cc1cc(CC(=O)NCc2ccnc(OCC(F)(F)F)c2)no1` | 4.617% |
| `O=C(c1cccnc1N1CCN(Cc2ccoc2)CC1)N1CCCCC1` | 4.298% |
| `Cc1nc(CN2CCCC(N(C)Cc3cscn3)C2)no1` (stereo not given) | 12.02% |
| `O=C(O)C(F)(F)F.O=C(O)C(F)(F)F.[H][C@@]12OCCN(Cc3ccc(F)cc3)[C@@]1([H])CC[C@H]2OCc1ccncc1` | 11.26% |
| `Cc1[nH]ccc1C(=O)N1CCC(c2nnc(Cn3cccn3)n2C)CC1` | -2.713% |
| `COC1CCN(C(=O)c2c(Cl)c3ccccc3n2C)CC1` | -10.52% |
| `Cc1cnn(CC2CN(Cc3nc(C4CC4)no3)CCO2)c1` (stereo not given) | -10.53% |
| `CN(Cc1ccco1)Cc1ccccc1CNC(=O)c1cc[nH]n1` | -19.65% |
| `Cc1nc(CN(C)C2CCCN(c3ccccc3)C2)no1` (stereo not given) | -5.53% |
| `CN(C)CC1(O)CCN(C(=O)c2ccc(-n3cccn3)cc2Cl)C1` (stereo not given) | -5.074% |
| `CC(C)c1ncc(S(C)(=O)=O)c(C2CCCNC2)n1` (stereo not given) | -0.9356% |
| `O=S(=O)(c1ccccc1)N1CCC[C@]2(C[C@@H](OCC3CC3)CO2)C1` | 16.53% |
| `COc1ccc(C(C)NCc2cccs2)cc1Cn1cccn1` (stereo not given) | 6.316% |
| `CCOCCN1CCN(Cc2nc(C3CC3)no2)CC1CC` (stereo not given) | -0.3542% |
| `Cc1cc(C)n(CC2CCCN2Cc2ncc(C(C)(C)C)o2)n1` (stereo not given) | 5.66% |
| `O=C(NCCN1CCCC1)c1cc2c(s1)CCN2C(=O)c1ccccc1` | 7.589% |
| `N#CCCCS(=O)(=O)NC1(c2cccc(Br)c2)CC1` | -7.601% |
| `CO[C@H]1CN(S(=O)(=O)c2ccc(F)cc2)C[C@@]12CCCO2` | 13.61% |
| `CNC(=O)CN1CCCC12CCN(C(=O)c1cccc(F)c1)CC2.O=C(O)C(F)(F)F` | 14.8% |
| `COC1COC2(CCN(C(=O)c3ccccc3F)CC2)C1` (stereo not given) | -5.429% |
| `Cc1cccc(C(=O)N2CCCCC2c2[nH]ncc2S(C)(=O)=O)c1` (stereo not given) | -4.184% |
| `COCCN1CC[C@H](O)[C@@H]1Cc1ccccc1.O=C(O)C(F)(F)F` | 6.579% |
| `CO[C@H]1CN(Cc2ccc(F)cc2)CC[C@@]12CCCO2` | 4.65% |
| `Cn1cc(C2=NOC(C(=O)NC3(c4cccc(F)c4)CCCC3)C2)cn1` (stereo not given) | 9.259% |

7 of the entries, repeated:

For CSCC[C@H](N)C(=O)NCc1cc2n(n1)CCCN(C(=O)C1CCC1)C2 the result was -4.927%.
For CCC(C)N(Cc1cccnc1)Cc1cc2c(cc1OC)OCO2 (stereo not given) the result was -15.66%.
For NS(=O)(=O)CCNC(=O)c1cc2cccc(F)c2o1 the result was -3.403%.
For CCc1noc(C(C)N2CCN(Cc3noc(C)n3)CC2)n1 (stereo not given) the result was 18.8%.
For Cc1nc(C2CCCN2C(=O)CCOCc2ccccc2)no1 (stereo not given) the result was 12.22%.
For COc1ccc(-c2nnc(CNCCn3cccn3)o2)cc1 the result was 3.188%.
For CN(C)CC(=O)N1Cc2nnn(C)c2C(COCC2CC2)C1 (stereo not given) the result was 3.322%.